{"source": "patent US7112654B2", "about": "(Supratek Pharma Inc., priority 2001, dated 2006)", "assay": "general procedure: Fmoc solid-phase peptide synthesis; NovaSyn TGR resin; PyBOP, diisopropylethylamine", "settings": "whole synthesis, scale 0.1 mmol, acetate salt"}
{"substance": "(H-Lys)8(H-Lys)4(Lys)2LysCysNH2", "values": [{"measurement": "isolated mass", "value": 21, "unit": "mg"}]}
